These are yes or no findings as the source states them, for the method shown. For part of these data: Binding seen in cells or lysates may run through a third protein. Some binding calls cover weakened binding; strength is not graded here.
Tests used:
[1] = molecular target: T1, Fis1 (mouse, endogenous) (mouse (endogenous in HdhQ111 cells)) (UniProt Q9CQ92); experiment: co-IP; HdhQ111 cells treated with TAT or DA1, cross-linked with 1% FA for 20 min at r.t. before lysis (Drp1-Fis1)
T1 sequence: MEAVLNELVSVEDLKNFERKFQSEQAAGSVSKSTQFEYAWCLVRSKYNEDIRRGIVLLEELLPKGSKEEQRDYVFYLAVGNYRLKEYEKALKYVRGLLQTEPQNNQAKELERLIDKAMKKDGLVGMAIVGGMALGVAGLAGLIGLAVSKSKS

Chains of the proteins cited; added tags and fusions are not shown.
UniProt Q8BGV8: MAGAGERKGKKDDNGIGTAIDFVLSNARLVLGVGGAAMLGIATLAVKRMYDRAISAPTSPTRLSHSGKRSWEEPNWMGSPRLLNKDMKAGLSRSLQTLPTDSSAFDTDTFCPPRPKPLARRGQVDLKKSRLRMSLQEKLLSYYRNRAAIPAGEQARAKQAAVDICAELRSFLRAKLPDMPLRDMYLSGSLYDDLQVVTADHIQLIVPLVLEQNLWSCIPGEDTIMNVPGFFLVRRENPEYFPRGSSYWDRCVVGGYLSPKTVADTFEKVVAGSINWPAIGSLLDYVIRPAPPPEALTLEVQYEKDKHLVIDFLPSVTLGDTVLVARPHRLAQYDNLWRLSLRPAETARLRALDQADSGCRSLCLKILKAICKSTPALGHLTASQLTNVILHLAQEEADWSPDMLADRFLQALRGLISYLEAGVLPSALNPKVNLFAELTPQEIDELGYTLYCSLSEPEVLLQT
UniProt Q8K1M6: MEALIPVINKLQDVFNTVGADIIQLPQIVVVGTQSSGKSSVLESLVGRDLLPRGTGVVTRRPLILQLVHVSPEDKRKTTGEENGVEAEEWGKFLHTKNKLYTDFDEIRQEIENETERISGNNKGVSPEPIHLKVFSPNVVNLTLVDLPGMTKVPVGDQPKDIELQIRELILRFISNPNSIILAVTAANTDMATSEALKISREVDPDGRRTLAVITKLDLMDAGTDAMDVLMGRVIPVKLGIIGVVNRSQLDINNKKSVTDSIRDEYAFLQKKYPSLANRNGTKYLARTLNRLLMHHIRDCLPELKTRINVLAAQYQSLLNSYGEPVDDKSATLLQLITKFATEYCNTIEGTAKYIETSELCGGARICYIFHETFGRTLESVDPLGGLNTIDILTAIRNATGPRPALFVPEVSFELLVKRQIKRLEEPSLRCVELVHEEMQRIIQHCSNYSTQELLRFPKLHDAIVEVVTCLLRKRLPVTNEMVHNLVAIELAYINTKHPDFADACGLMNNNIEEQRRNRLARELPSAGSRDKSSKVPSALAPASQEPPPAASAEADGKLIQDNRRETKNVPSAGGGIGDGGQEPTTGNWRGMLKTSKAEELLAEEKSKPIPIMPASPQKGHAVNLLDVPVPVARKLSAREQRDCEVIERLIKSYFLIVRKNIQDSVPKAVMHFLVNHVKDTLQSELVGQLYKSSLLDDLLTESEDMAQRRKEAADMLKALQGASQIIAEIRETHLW
UniProt P62897: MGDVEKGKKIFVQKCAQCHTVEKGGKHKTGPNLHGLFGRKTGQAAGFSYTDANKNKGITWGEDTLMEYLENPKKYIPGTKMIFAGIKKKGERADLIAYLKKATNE

[2] = molecular target: MIEF1 (mouse, endogenous) (mouse (endogenous in HdhQ111 cells)) (UniProt Q8BGV8); experiment: co-IP; HdhQ111 cells treated with TAT or DA1, cross-linked with 1 mM DSP for 10 min at r.t. before lysis (Drp1-Mff, Drp1-MiD51)
[3] = molecular target: T2, Mff (mouse, endogenous) (mouse (endogenous in HdhQ111 cells)) (UniProt Q6PCP5); experiment: as above
T2 sequence: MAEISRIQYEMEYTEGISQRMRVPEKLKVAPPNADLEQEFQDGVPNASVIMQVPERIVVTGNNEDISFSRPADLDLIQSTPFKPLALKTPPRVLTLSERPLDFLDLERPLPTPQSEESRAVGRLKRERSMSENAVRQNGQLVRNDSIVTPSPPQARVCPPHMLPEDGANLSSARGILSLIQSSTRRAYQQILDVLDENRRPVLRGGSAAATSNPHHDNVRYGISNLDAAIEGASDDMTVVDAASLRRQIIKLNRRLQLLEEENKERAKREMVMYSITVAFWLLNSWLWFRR

[4] = molecular target: Dynamin-related protein 1 (mouse, endogenous) (mouse (endogenous in HdhQ7 and HdhQ111 striatal cells and mouse striatum)) (UniProt Q8K1M6); experiment: non-reducing SDS-PAGE and western blot; endogenous protein in total lysates of cells or tissues, 8% SDS-PAGE in the presence or absence of β-mercaptoethanol, WB with anti-ATAD3A or anti-Drp1
[5] = molecular target: T3, ATAD3A (mouse, endogenous) (mouse (endogenous in HdhQ7, HdhQ111 and Neuro2a cells and mouse striatum)) (UniProt Q925I1); experiment: co-IP; endogenous proteins, total lysates (1% Triton X-100, 150 mM NaCl) of HdhQ7 and HdhQ111 cells, of wildtype striatal cells exposed to 3-NP (5 mM, 4 h) and of striatal extracts of YAC128, R6/2 and wildtype mice
T3 sequence: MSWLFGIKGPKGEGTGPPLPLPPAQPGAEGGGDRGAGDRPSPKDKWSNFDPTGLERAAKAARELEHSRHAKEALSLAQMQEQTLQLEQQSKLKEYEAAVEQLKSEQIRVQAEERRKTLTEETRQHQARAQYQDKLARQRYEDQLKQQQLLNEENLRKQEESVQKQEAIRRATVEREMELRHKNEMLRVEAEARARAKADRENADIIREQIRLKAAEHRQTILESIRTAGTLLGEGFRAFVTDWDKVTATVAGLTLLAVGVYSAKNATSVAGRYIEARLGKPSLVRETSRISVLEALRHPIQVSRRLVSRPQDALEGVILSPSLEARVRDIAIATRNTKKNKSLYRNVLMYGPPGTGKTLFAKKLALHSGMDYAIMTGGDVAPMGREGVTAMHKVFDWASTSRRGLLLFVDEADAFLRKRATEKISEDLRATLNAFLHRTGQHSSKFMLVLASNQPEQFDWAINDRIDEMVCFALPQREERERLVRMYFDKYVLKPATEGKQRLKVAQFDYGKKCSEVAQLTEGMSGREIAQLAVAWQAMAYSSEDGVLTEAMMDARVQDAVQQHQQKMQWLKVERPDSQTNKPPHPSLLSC

[6] = molecular target: T3, ATAD3A (mouse, endogenous) (mouse (endogenous in HdhQ7, HdhQ111 and Neuro2a cells and mouse striatum)); experiment: proximity ligation; in situ Duolink PLA on fixed HdhQ7 and HdhQ111 cells, rabbit anti-ATAD3A with mouse anti-Mitofilin or mouse anti-Cytochrome C

## Dynamin-related protein 1 (mouse, endogenous) (from UniProt Q8K1M6 1-736)
[1]
  binding: binds
[2]
  binding: binds
[3]
  binding: binds
[4]
  binding: binds
[5]
  binding: binds

## Cytochrome c (mouse, endogenous) (from UniProt P62897 1-105)
[6]
  binding: no binding

From PMC6435701
